From patent publication US4704402A, “Method of treating sickle cell anemia” (University of Pittsburgh, priority 1983, dated 1987)
At least one read-out could not be matched to a standard name with certainty.

Tested on: sickle hemoglobin (HbS)
Test: hemoglobin solubility test (Hofrichter et al. assay): deoxygenated sickle hemoglobin, ultracentrifugation, soluble HbS in supernatant
Assay type: biochemical
Conditions: deoxygenated with dithionite, about 150,000×g, about 2 1/2 hours, about 35° C., average HbS around 3.7 mM

SMILES: CC(C)(Oc1ccc(Cl)cc1)C(=O)O [I, clofibric acid]
- ratio of the HbS solubility with the particular drug to HbS solubility with no drug (average ratio) (drug conc. 5 mM): 1.018
- ratio of the HbS solubility with the particular drug to HbS solubility with no drug (average ratio) (drug conc. 10 mM): 1.064
- ratio of the HbS solubility with the particular drug to HbS solubility with no drug (average ratio) (drug conc. 20 mM): 1.155
- ratio of the HbS solubility with the particular drug to HbS solubility with no drug (average ratio) (drug conc. 40 mM): 1.302
